Test [1] concerns the target T1, intein-BHMT (betaine homocysteine S-methyltransferase) (R. norvegicus) (UniProt O09171).
T1 sequence: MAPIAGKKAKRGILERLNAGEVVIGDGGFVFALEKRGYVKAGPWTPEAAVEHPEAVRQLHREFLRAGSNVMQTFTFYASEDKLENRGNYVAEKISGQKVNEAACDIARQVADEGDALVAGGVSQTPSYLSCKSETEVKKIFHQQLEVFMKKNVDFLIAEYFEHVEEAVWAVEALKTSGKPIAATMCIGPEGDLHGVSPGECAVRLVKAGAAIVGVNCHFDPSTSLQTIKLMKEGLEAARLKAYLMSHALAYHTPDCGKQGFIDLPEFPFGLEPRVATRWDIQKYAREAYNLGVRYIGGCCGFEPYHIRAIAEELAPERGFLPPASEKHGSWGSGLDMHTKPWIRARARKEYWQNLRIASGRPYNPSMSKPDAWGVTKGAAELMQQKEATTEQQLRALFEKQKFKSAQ
The test can be described thus: affinity purification with mass spectrometry; intein-BHMT held on chitin beads; rat liver cytosol first passed over a bead-only and an intein column; 10 mM sodium phosphate pH 7.4, 5 mM EDTA, 0.1 mM EGTA, 4°C; bound proteins eluted with a 0-500 mM NaCl gradient (peak at 50-100 mM NaCl); LC-MS/MS; only the target purified.

In test [2] the target is T1, intein-BHMT (betaine homocysteine S-methyltransferase) (R. norvegicus). The test can be described thus: affinity purification with mass spectrometry; same intein-BHMT chitin column after the salt gradient; proteins recovered together with BHMT upon intein excision with 30 mM 2-mercaptoethanol, 48 h at 23°C (strong interactors); LC-MS/MS; only the target purified.

These are yes or no findings as the source states them, for the method shown. In cells and extracts the contact can be indirect. These calls come from enrichment with a bait or labelling near it, and not all partners need be listed.

B1: Keratin, type II cytoskeletal 1 (protein, UniProt Q6IMF3 1-625)
chain: MSFQCSSRSLCRSGGGGGGRNFSSGSAGLVSFQRRSTSSSMRRSGGGGGGRFSGGGFCGSSGGGFGSKSLVNLGGGRSISISVAGGGSSYGGGFGGGSYGGGSFGGGSFGGGVGGGFGGGGFGGGGFGSGGGFGGGRFGGGFGPVCPPGGIQEVTINQSLLQPLNVEVDPQIQKVKSQEREQIKSLNDKFASFIDKVRFLEQQNQVLQTKWELLQQVDTSTRTQNLDPFFESYISNLRRQVDSLKNDQSRMDSELKNMQDLVEEYRTKYEDEINKRTNAENEFVTIKKDVDSAYMNKAELQARVDNLQQDIDFFSTLYQMELSQMQTQISETNVVLSMDNNRTLDLDGIIAEVKAQYDSICQRSKAEAETFYQSKYEELQITAGKHGDSVKNTKMEISELNRVIQRLRSEIDSVKKQISQMQQNISDAEQRGEKALKDAQNKLNEIEDALTQAKEELTRLLRDYQELMNTKLALDMEIATYRKLLEGEEIRMSGECTPNVSVSVSTSHTSMSGTSSRGGGRYGSGGGGGGGTYGGGSRGGSYGGGSGGGSYGGCSSGGGSGGGSYGGGSSGGHRGGSGGGGGSSGGSYGGSSGGGRGGSSSGGGVKSSGSSSVKFVSTTYSRGTN
Take B1: in test [1], the binding result was “binds”.

B2: Pre-mRNA splicing factor 6 (protein, UniProt A1A5S1 1-941)
chain: MNKKKKPFLGMPAPLGYVPGLGRGATGFTTRSDIGPARDANDPVDDRHAPPGKRTVGDQMKKNQAADDDDEDLNDTNYDEFNGYAGSLFSSGPYEKDDEEADAIYAALDKRMDERRKERREQREKEEIEKYRMERPKIQQQFSDLKRKLAEVTEEEWLSIPEVGDARNKRQRNPRYEKLTPVPDSFFAKHLQTGENHTSVDPRQTQFGGLNTPYPGGLNTPYPGGMTPGLMTPGTGELDMRKIGQARNTLMDMRLSQVSDSVSGQTVVDPKGYLTDLNSMIPTHGGDINDIKKARLLLKSVRETNPHHPPAWIASARLEEVTGKLQVARNLIMKGTEMCPKSEDVWLEAARLQPGDTAKAVVAQAVRHLPQSVRIYIRAAELETDIRAKKRVLRKALEHVPNSVRLWKAAVELEEPEDARIMLSRAVECCPTSVELWLALARLETYENARKVLNKARENIPTDRHIWITAAKLEEANGNTQMVEKIIDRAITSLRANGVEINREQWIQDAEECDRAGSVATCQAVMRAVIGIGIEEEDRKHTWMEDADSCVAHNALECARAIYAYALQVFPSKKSVWLRAAYFEKNHGTRESLEALLQRAVAHCPKAEVLWLMGAKSKWLAGDVPAARSILALAFQANPNSEEIWLAAVKLESENNEYERARRLLAKARSSAPTARVFMKSVKLEWVLGNITAAQELCEEALRHYEDFPKLWMMKGQIEEQGELMERAREAYNQGLKKCPHSTPLWLLLSRLEEKIGQLTRARAILEKSRLKNPKNPGLWLESVRLEYRAGLKNIANTLMAKALQECPNSGILWSEAVFLEARPQRKTKSVDALKKCEHDPHVLLAVAKLFWSERKITKAREWFHRTVKIDSDLGDAWAFFYKFELQHGTEEQQEEVRKRCENAEPRHGELWCAVSKDITNWQRKIGEILVLVAARIKNTF
On to B2, for which the binding entry in test [1] and in test [2] was “binds” in each case.

B3: Eukaryotic translation elongation factor 1 beta 2 (protein, UniProt A6IPG1 1-225)
chain: MGFGDLKTPAGLQVLNDYLADKSYIEGYVPSQADVAVFEAISGPPPADLCHALRWYNHIKSYEKEKASLPGVKKSLGKYGPVSVADTTGSGAADAKDDDDIDLFGSDDEEESEDAKRLREERLAQYESKKAKKPAVVAKSSILLDVKPWDDETDMTKLEECVRSIQADGLVWGSSKLVPVGYGIKKLQIQCVVEDDKVGTDMLEEQITAFEDYVQSMDVAAFNKI
In the case of B3, the binding result in test [1] is on record as “binds”.

B4: Guanine nucleotide binding protein, alpha 14 (protein, UniProt Q5EAP4 1-355)
chain: MAGCCCLSAEEKESQRISAEIERQLRRDKKDARRELKLLLLGTGESGKSTFIKQMRIIHGSGYSDEDRKGFTKLVYQNIFTAMQAMIRAMDTLRIQYTCEQNKENAQIIREVEVDKVSAISRDQVAAIKQLWLDPGIQECYDRRREYQLSDSAKYYLTDIDRIAMPSFVPTQQDVLRVRVPTTGIIEYPFDLENIIFRMVDVGGQRSERRKWIHCFESVTSIIFLVALSEYDQVLAECDNENRMEESKALFKTIITYPWFLNSSVILFLNKKDLLEEKIMYSHLISYFPEYTGPKQDVKAARDFILKLYQDQNPDKEKVIYSHFTCATDTENIRFVFAAVKDTILQLNLREFNLV
As to B4, the binding entry in test [1] is recorded as “binds”.

B5: LOC499754 protein (protein, UniProt B1H281 1-534)
chain: MKIHSEAAVEAQIQELRTITRLQEQCRGLQIQGVKEKTAQNKATMGLLRSNLRRGAHEWALAKKHDQWTTSKACGKDTSMRLAHCRSTMEVAREKLRKYVFDRVNTHNVLIHLVRRRGQKLEGLELELTSLRNQPEATKEELRQLQIIRQLENNIEKTMIKITTSQNIHALYKQLLDYLKKVLAEYPTELDKLQNLVANYHSELSDMTVMSQDAMMITDEVKRNMRQGEATFIEERRARENRLNQQKKLIDKIHTKETSEKYRRGRRDLDFPSNLMSMESMKVKKRESSVADIQYQTKVTTLVEKVKSAVQCSHLWDIAGRFLAQKTTEENLELQMEDCEERRTQLEALMKKLELEEAVLKFHQTPSSVGFSSLQKKMKNMLEEEEARLRQVQNNMNKSQQLLLVIQTGIDNLYIRLIGIAPQAFQKEIAVSDTLDVYGKLDYCEGKLMYLAERTQALSRNEEVDTKVRDSLESSTLKEKHNTRITFEDQEEDMIETFQFADVDHSYVPSRAEIKKQGQRLIEGKLKGAKKKKK
In the case of B5, the binding result in test [1] is reported as “binds”.

B6: DECR2 Peroxisomal 2,4-dienoyl-CoA reductase (protein, UniProt Q9Z2M4 1-292)
chain: MTQQPPDVEEDDCLSEYHHLFCPDLLQDKVAFITGGGSGIGFRIAEIFMRHGCHTVIVSRSLPRVSEAAKKLVAATGKRCLPLSMDVRVPPAVMAAVDQALKEFGKIDILINCAAGNFLCPASALSFNAFKTVVDIDTLGTFNVSRVLYEKFFRDHGGVIVNITATLSMRGQVLQLHAGAAKAAVDAMTRHLAVEWGPQNIRVNSLAPGAISGTEGLRRLGGPKASSKFKYLSSPIPRLGTKTEIAHSVLYLASPLASYVSGIVLVVDGGSWMTLPNDIGRLLEFESSSAKL
Regarding B6, in test [1], the binding entry was “binds”.

B7: Phospholipid phosphatase-related protein type 1 (protein, UniProt Q6WAY2 1-325)
chain: MAVENNTQRSYSIIPCFIFVELVIMAGTVLLAYYFECTDTFQVHIQGFFCQDGDLMKPYPGTEEESFISPLVLYCVLAATPTAIIFIGEISMYFIKSTRESLIAEEKMILTGDCCYLSPLLRRIVRFIGVFAFGLFATDIFVNAGQVVTGHLTPYFLTVCQPNYTSTDCRAHHQFINNGNICTGDLEVIEKARRSFPSKHAALSIYSALYATMYITSTIKTKSSRLAKPVLCLGDLCTAFLTGLNRVSEYRNHCSDVIAGFILGTAVALFLGMCVVHNFKGTQGSASKPKPEDPRGVPLMAFPRIESPLETLSAQNHSASMTEVT
For the molecule B7, the binding entry in test [1] and in test [2] was “binds” each time.

B8: Cytochrome P450 2B3 (entry P13107) (protein, UniProt P13107 1-491)
chain: MDTSVLLLLAVLLSFLLFLVRGHAKVHGHLPPGPRPLPLLGNLLQMDRGGFRKSFIQLQEKHGDVFTVYFGPRPVVMLCGTQTIREALVDHAEAFSGRGIIAVLQPIMQEYGVSFVNEERWKILRRLFVATMRDFGIGKQSVEDQIKEEAKCLVEELKNHQGVSLDPTFLFQCVTGNIICSIVFGERFDYRDRQFLRLLDLLYRTFSLISSFSSQMFEVYSDFLKYFPGVHREIYKNLKEVLDYIDHSVENHRATLDPNAPRDFIDTFLLHMEKEKLNHYTEFHHWNLMISVLFLFLAGTESTSNTLCYGFLLMLKYPHVAEKVQKEIDQVIGSQRVPTLDDRSKMPYTEAVIHEIQRFSDVSPMGLPCRITKDTLFRGYLLPKNTEVYFILSSALHDPQYFEQPDTFNPEHFLDANGALKKCEAFMPFSIGKRMCLGEGIARSELFLFFTTILQNYSVSSPVDPNTIDMTPKESGLAKVAPVYKICFVAR
As to B8, the binding entry in test [1] is “binds”.

B9: Cytochrome P450 2B3 (entry Q6LCX1) (protein, UniProt P13107 1-491)
chain: MDTSVLLLLAVLLSFLLFLVRGHAKVHGHLPPGPRPLPLLGNLLQMDRGGFRKSFIQLQEKHGDVFTVYFGPRPVVMLCGTQTIREALVDHAEAFSGRGIIAVLQPIMQEYGVSFVNEERWKILRRLFVATMRDFGIGKQSVEDQIKEEAKCLVEELKNHQGVSLDPTFLFQCVTGNIICSIVFGERFDYRDRQFLRLLDLLYRTFSLISSFSSQMFEVYSDFLKYFPGVHREIYKNLKEVLDYIDHSVENHRATLDPNAPRDFIDTFLLHMEKEKLNHYTEFHHWNLMISVLFLFLAGTESTSNTLCYGFLLMLKYPHVAEKVQKEIDQVIGSQRVPTLDDRSKMPYTEAVIHEIQRFSDVSPMGLPCRITKDTLFRGYLLPKNTEVYFILSSALHDPQYFEQPDTFNPEHFLDANGALKKCEAFMPFSIGKRMCLGEGIARSELFLFFTTILQNYSVSSPVDPNTIDMTPKESGLAKVAPVYKICFVAR
Turning to B9, the binding result in test [1] was “binds”.

B10: Proliferation-associated protein 2G4 (protein, UniProt Q6AYD3 1-394)
chain: MSGEDEQQEQTIAEDLVVTKYKMGGDIANRVLRSLVEASSSGVSVLSLCEKGDAMIMEETGKIFKKEKEMKKGIAFPTSISVNNCVCHFSPLKSDQDYILKEGDLVKIDLGVHVDGFIANVAHTFVIGVAQGSQVTGRKADVIKAAHLCAEAALRLVKPGNQNTQVTEAWNKVAHSFNCTPIEGMLSHQLKQHVIDGEKTIIQNPTDQQKKDHEKAEFEVHEVYAVDVLVSSGEGKAKDAGQRTTIYKRDPSKQYGLKMKTSRAFFSEVERRFDAMPFTLRAFEDEKKARMGVVECAKHELLQPFNVLYEKEGEFVAQFKFTVLLMPNGPMRITSGPFEPDLYKSEMEVQDAELKALLQSSASRKTQKKKKKKASKTAENATSGETLEENGAGD
As for B10, the binding entry in test [1] is on record as “binds”.
